For the assay, the system named is HEK293A TEAD-LUC reporter. Description: TEAD-luciferase reporter activity (YAP activation), robust Z score vs plate; higher = stronger YAP/TEAD activation. Particulars: 24 h. For orientation: In a reporter assay the amount or activity of a reporter protein is the signal.

Where a name gives a salt, the structure may show the parent alone. This is one part of the list. This data set is noisy: repeats of one test often differ as much as different tests do.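 Human kidney-derived cells stably carry a construct in which eight TEAD-binding elements drive luciferase, measured by luminescence in a drug-repurposing library screen. A hit is any compound whose signal exceeds the plate mean by more than five robust Z scores.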

As to `CON` [Methoxyamine HCl], the TEAD-luciferase reporter activity (compound concentration: 2 uM) is inactive: -0.622.
On to `CON` [Hydroxylamine, O-methyl-], for which the TEAD-luciferase reporter activity is, setting by setting: (compound concentration: 200 nM) inactive: -0.24; (compound concentration: 10 uM) inactive: -1.27.
Taken in the same sequence, the figures for `CN(C)CC(=O)N1Cc2ccccc2CC2(CCCN2C)C1` (stereo not drawn) were active: 6.42 and inactive: 1.17.
With `CC(=O)N[C@H]1CSSC(C)(C)[C@@H](C(N)=O)NC(=O)[C@@H](CC(=O)O)NC(=O)CNC(=O)[C@H](CCCNC(=N)N)N(C)C1=O`, the TEAD-luciferase reporter activity (compound concentration: 200 nM) is inactive: 2.74, the TEAD-luciferase reporter activity (compound concentration: 2 uM) was inactive: -0.352 and the TEAD-luciferase reporter activity (compound concentration: 10 uM) is inactive: 1.52.
Taken in the same sequence, the figures for `Cc1cnc(CSc2nc3ccccc3[nH]2)c(C)c1OCC1COC(C)(C)OC1` [analog of E-3710] were active: 8.5, inactive: 1.27 and inactive: 2.2.
Taken in the same sequence, the figures for `COc1ccccc1CN[C@@H]1CCCN[C@@H]1c1ccccc1` were inactive: -0.857, inactive: -1.5 and inactive: -1.59.
The corresponding values for `COc1cccc2c1CCC(=O)N2CCCN1CCN(c2cccc(Cl)c2)CC1` are inactive: -0.567, inactive: 0.865 and inactive: 2.43.
As to `Cc1cc(Nc2ccc(S(F)(F)(F)(F)F)cc2)n2nc(C(C)(F)F)nc2n1`, the TEAD-luciferase reporter activity is, setting by setting: (compound concentration: 200 nM) inactive: 4.9; (compound concentration: 2 uM) inactive: -0.293; (compound concentration: 10 uM) inactive: 4.43.
The corresponding values for `COc1cc([C@@H]2c3cc4c(cc3C(O[C@@H]3O[C@@H]5CO[C@H](C)O[C@H]5[C@@H](O)[C@H]3O)C3COC(=O)C32)OCO4)cc(OC)c1O` (stereo partly drawn) [etoposide] are inactive: -3.26, inactive: -1.87 and inactive: -2.32.
The corresponding values for `CC(C)NC[C@H](O)COc1ccc(O)cc1` [prenalterol] are inactive: -0.593, inactive: -1.11 and inactive: -1.88.
Taken in the same sequence, the figures for `C[C@H](Sc1nc(N)cc(Cl)n1)c1cc2ccoc2cn1` were inactive: 0.385, inactive: 0.81 and inactive: -1.48.
In the case of `O=[Si]([O-])[O-]` [copper, antifungal, Conve], the TEAD-luciferase reporter activity reads like this: (compound concentration: 200 nM) inactive: 0.285; (compound concentration: 10 uM) inactive: 1.21.
As to `O=[Si]([O-])[O-]` [copper, antifungal], the TEAD-luciferase reporter activity (compound concentration: 2 uM) is inactive: -0.196.
Turning to `CCS(=O)(=O)Nc1cccc(C(N)C(=O)N[C@@H]2C(=O)N3C(C(=O)O)=C(OC)CS[C@H]23)c1` (stereo partly drawn), the TEAD-luciferase reporter activity was inactive: -0.86 (compound concentration: 200 nM), inactive: -0.0216 (compound concentration: 2 uM) and inactive: -0.823 (compound concentration: 10 uM).
Taken in the same sequence, the figures for `CC(C)N/C(=N/C#N)Nc1cccnc1` were inactive: -1.51, inactive: -1.14 and inactive: -0.803.
The corresponding values for `Cc1nc(N2CCN(C)CC2)c2nc(-c3ccccc3Cl)n(C3CCOCC3)c2n1` are inactive: 0.352, inactive: -0.461 and inactive: -0.525.
Consider `CCN(CC)CC(C)(C)COC(=O)c1ccc(-c2ccc(C(F)(F)F)cc2)o1`, for which the TEAD-luciferase reporter activity reads like this: (compound concentration: 200 nM) inactive: -1.39; (compound concentration: 2 uM) inactive: -0.531; (compound concentration: 10 uM) active: 6.29.
Taken in the same sequence, the figures for `Fc1ccc(-c2cncc(CN3CCN(c4cccc5c4OCCO5)CC3)c2)cc1` [Adoprazine hydrochloride] were inactive: -1.64, inactive: -0.915 and inactive: -1.13.
Taken in the same sequence, the figures for `CCCCNc1nc(C)c(C(=O)c2ccc3nc(NC(=O)OC)[nH]c3c2)s1` were inactive: -0.567, inactive: 4.19 and inactive: 4.54.
The corresponding values for `CC1(C)CCC(C)(C)c2cc(Cn3cccn3)c(/C=C/c3ccc(C(=O)O)cc3)cc21` [palovarotene] are inactive: -0.888, inactive: -0.0217 and inactive: 0.0463.
In the case of `CCCCCNCCOC(=O)c1ccc(N)cc1`, the TEAD-luciferase reporter activity by setting is: (compound concentration: 200 nM) inactive: 0.185; (compound concentration: 2 uM) inactive: -2.17; (compound concentration: 10 uM) inactive: 0.781.
Taken in the same sequence, the figures for `CCCCN(Cc1ccc(-c2ccccc2-c2nnn[nH]2)cc1)c1ncncc1C(=O)O` were inactive: -0.484, inactive: -0.549 and inactive: -1.09.
`CNC(=O)c1ccccc1Sc1ccc2c(/C=C/c3ccccn3)n[nH]c2c1` [axitinib (topical)]: the TEAD-luciferase reporter activity (compound concentration: 2 uM) is inactive: -0.65.
For `CNC(=O)c1ccccc1Sc1ccc2c(/C=C/c3ccccn3)n[nH]c2c1` [Axitinib], the TEAD-luciferase reporter activity is, setting by setting: (compound concentration: 200 nM) active: 5.21; (compound concentration: 10 uM) inactive: 3.62.
For `CC1(C)S[C@@H]2[C@H](NC(=O)C(NC(=O)c3c[nH]c4nc(N5CCN(C=O)CC5)ncc4c3=O)c3ccc(O)cc3)C(=O)N2[C@H]1C(=O)O` (stereo partly drawn), the TEAD-luciferase reporter activity by setting is: (compound concentration: 200 nM) inactive: -0.13; (compound concentration: 2 uM) inactive: 1.21; (compound concentration: 10 uM) inactive: 1.23.
For `COc1nc(N)c2ncn(C3CCCC3)c2n1`, the TEAD-luciferase reporter activity was inactive: -1.7 (compound concentration: 200 nM), inactive: -0.174 (compound concentration: 2 uM) and inactive: 2.2 (compound concentration: 10 uM).

(Values after the supplement of paper PMC10735217.)
